Data: the M2OR odorant receptor database
Numbering of substitutions follows the chain as printed. Only a part is listed here, and it is no random draw. The calls were merged from several studies; some rest on single wells. The list shows a part of the results.

Chains of the proteins cited; added tags and fusions are not shown. A line that says so, or that is headed by a name, gives the form on record, which may keep a tag or linker.
UniProt E9Q891, as listed by the source: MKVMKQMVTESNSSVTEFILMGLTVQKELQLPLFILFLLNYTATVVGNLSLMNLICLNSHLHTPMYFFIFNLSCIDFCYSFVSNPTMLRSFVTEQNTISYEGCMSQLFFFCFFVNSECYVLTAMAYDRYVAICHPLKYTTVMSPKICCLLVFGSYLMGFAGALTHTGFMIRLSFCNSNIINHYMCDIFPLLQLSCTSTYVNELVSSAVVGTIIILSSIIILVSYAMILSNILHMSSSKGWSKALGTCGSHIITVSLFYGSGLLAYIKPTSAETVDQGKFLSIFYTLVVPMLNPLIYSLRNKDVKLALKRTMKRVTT
UniProt K7N5T5, as listed by the source: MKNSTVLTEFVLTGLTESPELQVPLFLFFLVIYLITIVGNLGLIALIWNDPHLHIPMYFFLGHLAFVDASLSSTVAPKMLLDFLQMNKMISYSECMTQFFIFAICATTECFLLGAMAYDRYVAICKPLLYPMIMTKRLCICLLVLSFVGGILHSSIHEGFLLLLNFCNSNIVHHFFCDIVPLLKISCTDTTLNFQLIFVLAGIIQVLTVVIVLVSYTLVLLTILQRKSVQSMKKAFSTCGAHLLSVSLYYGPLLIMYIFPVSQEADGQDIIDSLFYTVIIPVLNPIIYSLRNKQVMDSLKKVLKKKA
UniProt L7N1Y8, as listed by the source: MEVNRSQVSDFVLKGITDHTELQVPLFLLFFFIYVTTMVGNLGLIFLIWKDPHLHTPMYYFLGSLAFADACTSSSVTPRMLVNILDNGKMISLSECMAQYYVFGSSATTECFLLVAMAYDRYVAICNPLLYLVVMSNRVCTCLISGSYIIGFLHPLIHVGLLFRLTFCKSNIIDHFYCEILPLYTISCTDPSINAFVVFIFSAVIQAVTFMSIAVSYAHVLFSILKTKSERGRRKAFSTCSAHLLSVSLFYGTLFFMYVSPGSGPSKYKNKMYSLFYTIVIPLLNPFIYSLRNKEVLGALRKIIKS
UniProt Q7TR75, as listed by the source: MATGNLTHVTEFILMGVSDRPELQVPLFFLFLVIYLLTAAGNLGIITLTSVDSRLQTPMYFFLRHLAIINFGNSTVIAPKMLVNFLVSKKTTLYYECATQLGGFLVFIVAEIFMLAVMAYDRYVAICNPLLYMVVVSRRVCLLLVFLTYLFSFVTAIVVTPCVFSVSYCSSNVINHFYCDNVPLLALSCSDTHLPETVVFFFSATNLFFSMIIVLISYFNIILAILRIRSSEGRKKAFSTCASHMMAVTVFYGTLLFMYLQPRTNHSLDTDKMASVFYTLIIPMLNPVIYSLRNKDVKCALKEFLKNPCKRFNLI
UniProt Q7TRA2, as listed by the source: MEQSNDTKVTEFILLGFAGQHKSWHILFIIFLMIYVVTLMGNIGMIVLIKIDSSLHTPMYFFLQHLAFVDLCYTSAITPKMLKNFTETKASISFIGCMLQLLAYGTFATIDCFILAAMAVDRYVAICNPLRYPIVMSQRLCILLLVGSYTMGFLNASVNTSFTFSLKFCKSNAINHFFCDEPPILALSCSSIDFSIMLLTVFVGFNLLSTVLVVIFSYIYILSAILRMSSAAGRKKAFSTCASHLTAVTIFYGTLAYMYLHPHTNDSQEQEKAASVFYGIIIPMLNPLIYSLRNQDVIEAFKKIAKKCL

Tests used:
Settings in all cases: stereoisomer not certain
[1] = target: T1, UniProt E9Q6Z7
T1 sequence (whole entry): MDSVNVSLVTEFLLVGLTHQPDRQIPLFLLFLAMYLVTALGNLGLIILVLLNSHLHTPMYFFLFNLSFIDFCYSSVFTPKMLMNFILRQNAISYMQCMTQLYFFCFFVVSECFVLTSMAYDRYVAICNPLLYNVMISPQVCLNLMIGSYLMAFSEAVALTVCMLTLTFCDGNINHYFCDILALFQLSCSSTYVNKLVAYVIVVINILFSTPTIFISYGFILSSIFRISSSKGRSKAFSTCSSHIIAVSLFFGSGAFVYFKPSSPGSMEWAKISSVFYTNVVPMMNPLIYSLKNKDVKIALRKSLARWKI
Outline: (§1)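 Values were gathered from published papers (main text and supplementary material), with extra details requested from the original authors when needed, and checked for typos and inconsistencies. Each receptor–molecule pair is called responsive (active) if the original authors judged the measured signal statistically different from baseline, and non-responsive (inactive) otherwise. Assay methods varied by source, often transient mammalian cell-line luciferase assays. Recorded details include cell line, G-protein, co-transfected protein and tags.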

[2] = target: T2, UniProt L7MU75
T2 sequence (whole entry): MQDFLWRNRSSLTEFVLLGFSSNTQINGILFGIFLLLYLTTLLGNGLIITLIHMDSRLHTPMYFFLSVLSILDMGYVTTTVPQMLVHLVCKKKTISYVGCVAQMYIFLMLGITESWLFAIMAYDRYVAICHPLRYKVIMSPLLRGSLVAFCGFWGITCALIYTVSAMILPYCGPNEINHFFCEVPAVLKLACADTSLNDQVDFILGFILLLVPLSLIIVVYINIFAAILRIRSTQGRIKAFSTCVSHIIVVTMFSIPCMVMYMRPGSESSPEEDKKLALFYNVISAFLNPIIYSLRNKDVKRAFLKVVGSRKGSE
Outline: as §1

[3] = target: T3, UniProt L7N210
T3 sequence (whole entry): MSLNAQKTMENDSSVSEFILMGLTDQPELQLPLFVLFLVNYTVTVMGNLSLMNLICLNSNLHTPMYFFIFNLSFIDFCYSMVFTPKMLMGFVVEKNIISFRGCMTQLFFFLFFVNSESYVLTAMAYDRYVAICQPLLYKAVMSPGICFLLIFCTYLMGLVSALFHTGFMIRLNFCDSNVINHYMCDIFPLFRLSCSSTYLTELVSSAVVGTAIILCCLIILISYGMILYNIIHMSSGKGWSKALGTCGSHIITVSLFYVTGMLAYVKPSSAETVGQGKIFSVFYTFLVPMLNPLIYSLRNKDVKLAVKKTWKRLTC
Outline: as §1

[4] = target: T4, UniProt Q3KPB0
T4 sequence (whole entry): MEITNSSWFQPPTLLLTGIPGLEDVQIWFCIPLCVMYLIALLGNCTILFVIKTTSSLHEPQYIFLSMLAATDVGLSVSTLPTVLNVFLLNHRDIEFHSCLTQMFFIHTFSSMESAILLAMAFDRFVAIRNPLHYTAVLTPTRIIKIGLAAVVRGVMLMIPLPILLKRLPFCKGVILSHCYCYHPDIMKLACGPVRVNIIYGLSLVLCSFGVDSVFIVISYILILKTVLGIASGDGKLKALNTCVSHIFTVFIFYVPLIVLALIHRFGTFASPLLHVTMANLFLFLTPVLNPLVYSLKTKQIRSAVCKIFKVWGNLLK
Outline: as §1

[5] = target: T5, UniProt Q3U0P3
T5 sequence (whole entry): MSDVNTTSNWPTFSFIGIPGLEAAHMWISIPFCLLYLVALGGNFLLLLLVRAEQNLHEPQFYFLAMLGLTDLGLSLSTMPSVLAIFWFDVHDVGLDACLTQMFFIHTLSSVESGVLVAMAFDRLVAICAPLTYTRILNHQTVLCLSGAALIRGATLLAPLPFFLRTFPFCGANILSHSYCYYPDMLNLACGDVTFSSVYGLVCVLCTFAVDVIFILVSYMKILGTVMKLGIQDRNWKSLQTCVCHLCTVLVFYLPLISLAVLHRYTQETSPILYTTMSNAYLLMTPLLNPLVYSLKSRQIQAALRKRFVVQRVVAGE
Outline: as §1

[6] = target: T6, UniProt Q7TQU8
T6 sequence (whole entry): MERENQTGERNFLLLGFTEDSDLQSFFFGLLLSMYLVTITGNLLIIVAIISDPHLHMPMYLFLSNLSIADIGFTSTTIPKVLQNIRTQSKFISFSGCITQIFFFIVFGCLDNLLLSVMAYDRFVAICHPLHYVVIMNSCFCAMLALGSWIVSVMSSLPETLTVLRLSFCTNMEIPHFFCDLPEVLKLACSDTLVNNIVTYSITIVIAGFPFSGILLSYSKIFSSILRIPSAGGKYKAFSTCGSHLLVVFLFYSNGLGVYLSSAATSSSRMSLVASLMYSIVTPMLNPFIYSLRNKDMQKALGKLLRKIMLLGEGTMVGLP
Outline: as §1

[7] = target: T7, UniProt Q7TR79
T7 sequence (whole entry): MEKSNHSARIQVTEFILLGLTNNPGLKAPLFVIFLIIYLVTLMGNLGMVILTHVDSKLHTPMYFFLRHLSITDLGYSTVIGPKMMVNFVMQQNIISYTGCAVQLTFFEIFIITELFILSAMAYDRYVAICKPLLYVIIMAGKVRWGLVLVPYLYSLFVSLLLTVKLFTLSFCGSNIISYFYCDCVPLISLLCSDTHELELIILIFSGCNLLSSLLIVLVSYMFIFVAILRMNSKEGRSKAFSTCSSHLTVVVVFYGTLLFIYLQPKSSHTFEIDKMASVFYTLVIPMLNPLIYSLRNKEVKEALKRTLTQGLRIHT
Outline: as §1

[8] = target: T8, UniProt E9Q9Z6
T8 sequence (whole entry): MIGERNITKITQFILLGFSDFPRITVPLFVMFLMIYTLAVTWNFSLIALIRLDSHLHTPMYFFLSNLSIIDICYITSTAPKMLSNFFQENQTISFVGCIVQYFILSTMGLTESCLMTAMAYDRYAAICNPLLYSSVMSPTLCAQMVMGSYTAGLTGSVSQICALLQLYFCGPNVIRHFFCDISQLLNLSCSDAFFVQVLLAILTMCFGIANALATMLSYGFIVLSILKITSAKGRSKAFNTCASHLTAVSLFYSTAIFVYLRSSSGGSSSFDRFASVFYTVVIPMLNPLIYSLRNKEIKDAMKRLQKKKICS
Outline: as §1

[9] = target: UniProt E9Q891
Outline: as §1

[10] = target: UniProt K7N5T5
Outline: as §1

[11] = target: T9, UniProt K7N609
T9 sequence (whole entry): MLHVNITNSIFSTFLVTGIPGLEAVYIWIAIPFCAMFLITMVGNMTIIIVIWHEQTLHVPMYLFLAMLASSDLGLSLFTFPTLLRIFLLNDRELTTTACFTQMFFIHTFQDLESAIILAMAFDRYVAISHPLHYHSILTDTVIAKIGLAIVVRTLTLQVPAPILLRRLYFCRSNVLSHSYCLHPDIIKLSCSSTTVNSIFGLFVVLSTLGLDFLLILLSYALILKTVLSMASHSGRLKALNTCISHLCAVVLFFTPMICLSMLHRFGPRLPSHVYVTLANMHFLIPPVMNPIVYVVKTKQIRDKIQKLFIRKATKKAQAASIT
Outline: as §1

[12] = target: UniProt L7N1Y8
Outline: as §1

[13] = target: T10, UniProt Q7TQV4
T10 sequence (whole entry): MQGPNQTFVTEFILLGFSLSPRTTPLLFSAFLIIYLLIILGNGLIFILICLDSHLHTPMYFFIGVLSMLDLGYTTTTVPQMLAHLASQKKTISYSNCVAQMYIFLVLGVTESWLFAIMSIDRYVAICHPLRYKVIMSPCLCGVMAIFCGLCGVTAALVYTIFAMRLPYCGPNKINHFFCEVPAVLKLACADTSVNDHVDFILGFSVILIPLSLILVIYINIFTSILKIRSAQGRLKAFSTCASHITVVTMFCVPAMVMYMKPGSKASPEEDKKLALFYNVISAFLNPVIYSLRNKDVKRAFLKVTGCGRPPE
Outline: as §1

[14] = target: T11, UniProt Q7TR71
T11 sequence (whole entry): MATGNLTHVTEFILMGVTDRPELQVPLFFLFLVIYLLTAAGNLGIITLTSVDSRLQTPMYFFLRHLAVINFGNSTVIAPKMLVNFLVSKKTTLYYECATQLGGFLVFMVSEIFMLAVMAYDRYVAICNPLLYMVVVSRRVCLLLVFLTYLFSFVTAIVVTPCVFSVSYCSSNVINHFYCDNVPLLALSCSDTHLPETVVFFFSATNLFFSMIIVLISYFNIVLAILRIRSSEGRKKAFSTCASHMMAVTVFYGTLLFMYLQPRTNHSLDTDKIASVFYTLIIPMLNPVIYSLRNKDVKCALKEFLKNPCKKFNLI
Outline: as §1

[15] = target: UniProt Q7TR75
Outline: as §1

[16] = target: T12, UniProt Q7TRA1
T12 sequence (whole entry): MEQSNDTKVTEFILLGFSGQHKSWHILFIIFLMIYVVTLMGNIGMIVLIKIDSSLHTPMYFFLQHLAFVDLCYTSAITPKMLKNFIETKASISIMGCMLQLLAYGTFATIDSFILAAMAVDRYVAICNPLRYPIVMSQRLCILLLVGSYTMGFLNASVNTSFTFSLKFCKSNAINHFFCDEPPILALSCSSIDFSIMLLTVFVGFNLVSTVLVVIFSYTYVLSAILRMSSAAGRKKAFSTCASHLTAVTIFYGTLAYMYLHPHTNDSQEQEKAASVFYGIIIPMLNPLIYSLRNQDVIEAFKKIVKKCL
Outline: as §1

[17] = target: T13, UniProt Q7TRA2
T13 sequence (whole entry): T12 sequence (whole entry) with S18A, I86T, I94F, M95I, S112C, V208L, T219I, V221I, V305A
Outline: as §1

[18] = target: T14, UniProt Q7TRA3
T14 sequence (whole entry): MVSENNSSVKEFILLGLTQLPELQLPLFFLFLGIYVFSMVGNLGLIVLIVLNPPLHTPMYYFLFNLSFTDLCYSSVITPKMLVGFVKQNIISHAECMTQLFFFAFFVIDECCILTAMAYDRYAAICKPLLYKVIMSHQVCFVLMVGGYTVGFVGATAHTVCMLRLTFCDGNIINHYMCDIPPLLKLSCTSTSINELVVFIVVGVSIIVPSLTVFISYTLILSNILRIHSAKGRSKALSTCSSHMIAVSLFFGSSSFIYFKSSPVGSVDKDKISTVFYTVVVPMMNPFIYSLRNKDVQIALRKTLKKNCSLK
Outline: as §1

Measured: odorant receptor agonist call

c1cnccn1
inactive: [1] | [2] | [3] | [4] | [5] | [6] | [7]

COc1ccccc1O
inactive: [1] | [2] | [3] | [4] | [5] | [6] | [7]

O=C1CCCCCCCCCCCCCCO1
active: [8]
inactive: [1] | [2] | [3] | [4] | [5] | [6] | [7]

CC1=CCC(C(C)(C)O)CC1 (stereo unspecified)
inactive: [2]

C=C(C)C1CC=C(C)C(=O)C1 (stereo unspecified)
active: [9] | [10] | [12] | [16] | [17]
inactive: [1] | [11] | [2] | [3] | [4] | [5] | [6] | [13] | [14] | [15] | [7] | [18]

C=CCc1ccc(O)c(OC)c1
inactive: [1] | [2] | [3] | [4] | [5] | [6] | [7]

CC(C)(O)CCCC1=CCC(C=O)CC1 (stereo unspecified)
inactive: [1] | [11] | [2] | [3] | [4] | [5] | [6] | [13] | [14] | [7] | [18]

CCCC(=O)O
inactive: [2]

COC(=O)c1ccccc1O
active: [4]
inactive: [1] | [2] | [3] | [5] | [6] | [7]
